The values that follow come from PMC10400037, “Novel players in organogenesis and flavonoid biosynthesis in cucumber glandular trichomes”.

For at least one entry, the source does not settle the construct or the ends of the probe. Weaker means in comparison with the reference protein, sequence or condition of that experiment. Protein sequences can lack the tags named with them.

The data set addresses T1, MBP-CsTBH (TINY BRANCHED HAIR, HD-ZIP) (Cucumis sativus) (UniProt A0A0A0LED8).
T1 sequence (looked up, limits assumed): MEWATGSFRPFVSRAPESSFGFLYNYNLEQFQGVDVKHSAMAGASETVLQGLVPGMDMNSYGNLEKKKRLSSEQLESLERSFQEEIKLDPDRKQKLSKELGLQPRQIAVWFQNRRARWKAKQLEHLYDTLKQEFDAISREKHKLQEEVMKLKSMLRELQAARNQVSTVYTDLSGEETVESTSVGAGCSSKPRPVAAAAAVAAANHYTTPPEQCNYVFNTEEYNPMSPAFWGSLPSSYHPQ
Kind of data set: EMSA. As to conditions: EMSA kit (Beyotime GS009) reaction buffer, room temperature, 6% native PAGE; salt and pH not stated; recombinant protein. (In general: In EMSA bound probe runs differently from free probe, usually more slowly.)

On to “ATTTATGTTTACAATAATGACAATAAATG (double strand) [CsBZ1 promoter probe]”, for which the binding result is “binds more weakly”.
